Some of the results follow.
Tests used:
Assay in all cases: log2 fold change, soluble protein after heating vs DMSO (PISA); higher = thermal stabilisation; K562 lysate, 10 uM; active = over 0.2 and 3.5 SD of the protein, either way, in both replicates (recomputed)
[1] = compound: Cc1cn(-c2cc(NC(=O)c3ccc(C)c(Nc4nccc(-c5cccnc5)n4)c3)cc(C(F)(F)F)c2)cn1 [nilotinib]
Procedure, shortened: (§1)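 Quantification was by TMTpro 16plex LC-MS/MS with equalised channel sums, applied to the supernatant after 21,000xg for 90 min. Samples were crude K562 extract at 1 mg/mL protein in PBS pH 7.4 with 1 mM MgCl2, treated with 10 μM compound for 30 min, heated for 3 min across 48°C-58°C, pooled and brought to 0.5% NP-40 at 4°C. Values are log-two fold changes in thermal stability relative to solvent controls, from duplicates.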

Protein sequences, listed by entry. Tags and fused reporters are not part of them. Lines headed by an entry give the natural chain unless they say otherwise; changes in a name come on top.
UniProt Q8WXF1: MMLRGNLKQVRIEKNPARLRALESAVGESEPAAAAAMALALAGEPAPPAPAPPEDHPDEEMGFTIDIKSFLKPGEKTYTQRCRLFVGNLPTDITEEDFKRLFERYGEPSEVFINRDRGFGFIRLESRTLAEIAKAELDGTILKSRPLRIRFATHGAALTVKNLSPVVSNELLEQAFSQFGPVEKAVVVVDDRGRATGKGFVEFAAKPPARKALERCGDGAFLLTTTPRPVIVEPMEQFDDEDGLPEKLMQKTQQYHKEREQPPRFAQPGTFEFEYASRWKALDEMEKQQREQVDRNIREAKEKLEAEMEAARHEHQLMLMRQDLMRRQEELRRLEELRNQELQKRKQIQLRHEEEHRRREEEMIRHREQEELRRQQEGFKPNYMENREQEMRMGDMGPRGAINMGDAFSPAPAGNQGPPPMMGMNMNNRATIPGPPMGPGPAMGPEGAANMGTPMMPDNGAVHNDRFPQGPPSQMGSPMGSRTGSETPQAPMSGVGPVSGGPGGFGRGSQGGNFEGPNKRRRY
UniProt Q99952: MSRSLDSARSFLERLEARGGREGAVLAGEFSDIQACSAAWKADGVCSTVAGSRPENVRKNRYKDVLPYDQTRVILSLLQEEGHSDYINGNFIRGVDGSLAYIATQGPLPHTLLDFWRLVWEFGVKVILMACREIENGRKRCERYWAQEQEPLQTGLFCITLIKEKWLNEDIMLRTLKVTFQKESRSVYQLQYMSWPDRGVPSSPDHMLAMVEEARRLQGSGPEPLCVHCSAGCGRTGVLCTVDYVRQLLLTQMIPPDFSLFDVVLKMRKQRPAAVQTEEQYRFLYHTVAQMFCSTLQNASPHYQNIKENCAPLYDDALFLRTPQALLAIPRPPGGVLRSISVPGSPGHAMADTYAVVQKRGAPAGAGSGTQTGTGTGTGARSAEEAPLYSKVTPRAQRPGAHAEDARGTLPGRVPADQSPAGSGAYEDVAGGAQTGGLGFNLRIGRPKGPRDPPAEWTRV
UniProt Q15185: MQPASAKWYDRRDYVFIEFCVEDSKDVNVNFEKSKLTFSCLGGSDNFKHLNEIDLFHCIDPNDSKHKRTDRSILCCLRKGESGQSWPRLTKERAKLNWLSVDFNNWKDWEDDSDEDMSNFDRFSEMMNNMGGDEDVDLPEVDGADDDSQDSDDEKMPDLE
UniProt Q92530: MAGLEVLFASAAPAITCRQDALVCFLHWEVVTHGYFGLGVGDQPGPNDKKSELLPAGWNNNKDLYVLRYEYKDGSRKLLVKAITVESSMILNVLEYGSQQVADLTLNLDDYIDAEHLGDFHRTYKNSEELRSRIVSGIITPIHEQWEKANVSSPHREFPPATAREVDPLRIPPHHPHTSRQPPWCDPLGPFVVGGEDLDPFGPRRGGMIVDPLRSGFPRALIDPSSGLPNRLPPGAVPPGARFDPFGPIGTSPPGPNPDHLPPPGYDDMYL
UniProt P25787: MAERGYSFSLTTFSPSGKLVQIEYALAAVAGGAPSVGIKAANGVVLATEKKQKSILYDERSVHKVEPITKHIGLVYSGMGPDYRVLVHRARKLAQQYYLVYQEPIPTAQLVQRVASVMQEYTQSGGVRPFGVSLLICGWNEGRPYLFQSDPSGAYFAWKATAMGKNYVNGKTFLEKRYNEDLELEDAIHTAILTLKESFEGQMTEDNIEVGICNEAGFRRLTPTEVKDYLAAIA
UniProt Q7Z6K3: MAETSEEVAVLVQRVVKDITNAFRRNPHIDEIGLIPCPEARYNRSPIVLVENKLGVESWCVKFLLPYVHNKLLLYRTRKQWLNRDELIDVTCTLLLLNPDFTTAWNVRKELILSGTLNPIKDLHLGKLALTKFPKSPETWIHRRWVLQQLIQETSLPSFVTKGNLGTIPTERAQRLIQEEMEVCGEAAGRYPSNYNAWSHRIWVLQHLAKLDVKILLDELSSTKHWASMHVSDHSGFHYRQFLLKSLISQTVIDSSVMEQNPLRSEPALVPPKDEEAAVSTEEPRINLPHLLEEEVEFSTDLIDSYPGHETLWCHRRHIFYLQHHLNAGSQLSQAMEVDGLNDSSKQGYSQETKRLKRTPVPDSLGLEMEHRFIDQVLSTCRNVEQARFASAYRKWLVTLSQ
UniProt Q9H7Z7: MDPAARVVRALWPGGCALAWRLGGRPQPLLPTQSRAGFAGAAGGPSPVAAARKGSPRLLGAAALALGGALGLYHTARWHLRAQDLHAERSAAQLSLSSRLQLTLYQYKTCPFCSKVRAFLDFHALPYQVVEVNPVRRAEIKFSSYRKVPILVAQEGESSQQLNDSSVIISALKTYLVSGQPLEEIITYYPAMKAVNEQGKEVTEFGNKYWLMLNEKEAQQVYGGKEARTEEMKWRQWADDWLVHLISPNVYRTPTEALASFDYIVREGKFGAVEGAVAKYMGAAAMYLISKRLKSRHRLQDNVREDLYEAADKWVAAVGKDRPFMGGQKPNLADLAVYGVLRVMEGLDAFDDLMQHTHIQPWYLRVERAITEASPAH
UniProt P62333, whole entry, looked up: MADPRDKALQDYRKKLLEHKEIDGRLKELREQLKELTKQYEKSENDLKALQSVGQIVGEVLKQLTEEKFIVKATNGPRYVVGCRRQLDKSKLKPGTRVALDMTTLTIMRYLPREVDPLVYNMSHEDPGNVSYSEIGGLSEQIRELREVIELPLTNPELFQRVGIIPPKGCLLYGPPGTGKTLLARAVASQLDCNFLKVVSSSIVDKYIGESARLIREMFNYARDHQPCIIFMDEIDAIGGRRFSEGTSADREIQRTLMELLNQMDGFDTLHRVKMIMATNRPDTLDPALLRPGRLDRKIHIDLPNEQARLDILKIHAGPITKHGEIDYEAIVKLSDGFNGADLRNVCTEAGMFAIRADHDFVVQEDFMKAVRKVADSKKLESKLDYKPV
UniProt O00232: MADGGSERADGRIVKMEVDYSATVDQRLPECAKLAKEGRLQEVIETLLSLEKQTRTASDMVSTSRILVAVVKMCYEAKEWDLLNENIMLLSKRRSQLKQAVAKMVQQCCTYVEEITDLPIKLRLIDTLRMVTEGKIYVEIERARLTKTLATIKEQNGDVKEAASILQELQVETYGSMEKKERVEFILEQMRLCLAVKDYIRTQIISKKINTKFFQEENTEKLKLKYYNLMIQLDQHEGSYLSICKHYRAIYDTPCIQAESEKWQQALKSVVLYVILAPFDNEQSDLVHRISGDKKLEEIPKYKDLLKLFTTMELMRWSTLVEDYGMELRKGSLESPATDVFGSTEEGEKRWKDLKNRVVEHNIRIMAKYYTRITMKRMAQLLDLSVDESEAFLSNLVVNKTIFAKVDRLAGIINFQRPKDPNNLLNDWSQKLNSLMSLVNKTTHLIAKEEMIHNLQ
UniProt P26599: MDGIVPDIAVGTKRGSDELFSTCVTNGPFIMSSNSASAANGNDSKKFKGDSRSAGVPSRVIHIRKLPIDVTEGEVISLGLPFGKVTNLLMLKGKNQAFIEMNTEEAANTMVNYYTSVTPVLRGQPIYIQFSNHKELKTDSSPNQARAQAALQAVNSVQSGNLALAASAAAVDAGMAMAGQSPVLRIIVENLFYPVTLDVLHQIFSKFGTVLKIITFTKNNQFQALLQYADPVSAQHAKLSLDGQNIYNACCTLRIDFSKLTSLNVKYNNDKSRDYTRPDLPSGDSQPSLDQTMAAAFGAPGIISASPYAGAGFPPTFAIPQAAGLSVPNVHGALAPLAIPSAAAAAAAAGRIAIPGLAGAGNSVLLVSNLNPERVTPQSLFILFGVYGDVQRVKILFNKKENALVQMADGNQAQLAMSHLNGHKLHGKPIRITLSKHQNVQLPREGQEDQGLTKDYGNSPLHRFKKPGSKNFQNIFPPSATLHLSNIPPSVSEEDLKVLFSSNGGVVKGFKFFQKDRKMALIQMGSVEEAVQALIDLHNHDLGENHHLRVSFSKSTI
UniProt Q5JSZ5: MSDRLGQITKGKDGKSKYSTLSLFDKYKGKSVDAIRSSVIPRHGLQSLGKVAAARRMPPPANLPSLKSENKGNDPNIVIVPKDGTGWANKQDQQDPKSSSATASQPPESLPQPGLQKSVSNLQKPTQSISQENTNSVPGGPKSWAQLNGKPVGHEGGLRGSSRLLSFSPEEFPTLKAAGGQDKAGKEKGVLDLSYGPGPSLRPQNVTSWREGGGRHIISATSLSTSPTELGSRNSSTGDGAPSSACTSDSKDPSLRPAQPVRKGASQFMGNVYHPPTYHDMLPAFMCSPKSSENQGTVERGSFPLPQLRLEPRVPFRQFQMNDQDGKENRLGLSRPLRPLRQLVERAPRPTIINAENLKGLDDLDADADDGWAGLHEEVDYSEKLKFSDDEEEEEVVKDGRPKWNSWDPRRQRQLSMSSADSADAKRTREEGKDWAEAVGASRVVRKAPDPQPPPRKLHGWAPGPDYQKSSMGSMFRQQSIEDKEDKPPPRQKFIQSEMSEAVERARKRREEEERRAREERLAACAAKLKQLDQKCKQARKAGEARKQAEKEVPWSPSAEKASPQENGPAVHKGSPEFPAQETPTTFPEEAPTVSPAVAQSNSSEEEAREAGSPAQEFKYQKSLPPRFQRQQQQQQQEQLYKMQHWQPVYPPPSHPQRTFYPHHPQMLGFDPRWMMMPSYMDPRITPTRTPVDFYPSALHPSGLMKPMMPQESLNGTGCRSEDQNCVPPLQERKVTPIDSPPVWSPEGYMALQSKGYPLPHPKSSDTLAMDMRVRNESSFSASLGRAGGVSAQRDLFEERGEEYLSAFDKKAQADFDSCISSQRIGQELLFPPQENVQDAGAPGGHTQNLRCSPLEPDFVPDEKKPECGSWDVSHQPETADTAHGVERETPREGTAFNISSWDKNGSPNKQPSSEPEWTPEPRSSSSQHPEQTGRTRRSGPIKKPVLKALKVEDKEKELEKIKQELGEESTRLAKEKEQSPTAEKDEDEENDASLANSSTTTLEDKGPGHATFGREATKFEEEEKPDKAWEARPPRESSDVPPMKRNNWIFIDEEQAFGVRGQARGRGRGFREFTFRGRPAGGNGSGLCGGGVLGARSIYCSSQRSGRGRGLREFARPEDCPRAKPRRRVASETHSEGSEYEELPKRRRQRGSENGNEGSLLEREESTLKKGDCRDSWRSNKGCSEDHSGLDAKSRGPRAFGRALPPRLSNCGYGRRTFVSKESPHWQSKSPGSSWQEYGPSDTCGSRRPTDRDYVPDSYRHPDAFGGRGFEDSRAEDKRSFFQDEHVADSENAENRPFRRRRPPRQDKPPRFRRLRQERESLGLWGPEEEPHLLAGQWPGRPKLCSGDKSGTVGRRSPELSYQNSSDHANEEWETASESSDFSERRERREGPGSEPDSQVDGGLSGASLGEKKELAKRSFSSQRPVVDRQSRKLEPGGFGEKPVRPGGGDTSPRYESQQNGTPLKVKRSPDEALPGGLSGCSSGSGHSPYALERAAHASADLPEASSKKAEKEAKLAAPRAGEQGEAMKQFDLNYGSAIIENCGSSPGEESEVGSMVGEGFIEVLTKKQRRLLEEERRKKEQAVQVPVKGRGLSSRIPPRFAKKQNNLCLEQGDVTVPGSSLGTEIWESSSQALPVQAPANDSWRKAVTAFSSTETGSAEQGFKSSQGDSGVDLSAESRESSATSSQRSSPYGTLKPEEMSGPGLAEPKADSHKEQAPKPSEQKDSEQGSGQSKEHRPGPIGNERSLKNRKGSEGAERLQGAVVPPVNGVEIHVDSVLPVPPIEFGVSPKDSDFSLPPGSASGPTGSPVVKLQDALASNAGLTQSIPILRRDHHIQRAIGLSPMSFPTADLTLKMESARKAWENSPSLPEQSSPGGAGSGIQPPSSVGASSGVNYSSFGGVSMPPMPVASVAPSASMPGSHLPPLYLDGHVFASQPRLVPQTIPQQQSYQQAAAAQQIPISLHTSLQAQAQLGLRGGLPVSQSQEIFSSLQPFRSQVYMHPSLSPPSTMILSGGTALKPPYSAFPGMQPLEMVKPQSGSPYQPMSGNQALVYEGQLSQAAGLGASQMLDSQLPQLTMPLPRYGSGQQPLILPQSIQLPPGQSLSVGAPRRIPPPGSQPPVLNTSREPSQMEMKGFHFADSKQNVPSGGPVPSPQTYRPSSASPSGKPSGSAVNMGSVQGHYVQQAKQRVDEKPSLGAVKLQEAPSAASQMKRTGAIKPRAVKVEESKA
UniProt Q9BZE2: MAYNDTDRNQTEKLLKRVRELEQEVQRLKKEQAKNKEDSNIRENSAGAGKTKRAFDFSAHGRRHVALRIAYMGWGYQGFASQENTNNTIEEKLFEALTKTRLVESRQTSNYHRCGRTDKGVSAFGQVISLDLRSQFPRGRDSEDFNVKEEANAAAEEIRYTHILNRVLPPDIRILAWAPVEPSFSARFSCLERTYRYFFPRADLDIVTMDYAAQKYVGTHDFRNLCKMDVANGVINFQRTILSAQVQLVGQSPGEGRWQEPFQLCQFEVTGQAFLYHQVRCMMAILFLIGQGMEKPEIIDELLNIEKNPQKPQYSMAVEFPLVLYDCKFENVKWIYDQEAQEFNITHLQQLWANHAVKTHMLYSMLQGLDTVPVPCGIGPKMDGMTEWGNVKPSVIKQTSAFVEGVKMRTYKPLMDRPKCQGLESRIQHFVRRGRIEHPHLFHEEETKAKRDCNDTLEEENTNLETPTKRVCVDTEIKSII

[2] = compound: Cc1nc(Nc2n[nH]c3c2CN(C(=O)N[C@H](CN(C)C)c2ccccc2)C3(C)C)c2sccc2n1
Procedure, shortened: as §1

[3] = compound: Cc1nc(Nc2ncc(C(=O)Nc3c(C)cccc3Cl)s2)cc(N2CCN(CCO)CC2)n1 [dasatinib]
Procedure, shortened: as §1

[4] = compound: Cc1ncc(-c2ccnc(Nc3ccc(S(C)(=O)=O)cc3)n2)n1C(C)C
Procedure, shortened: as §1

[5] = compound: Cn1cc(-c2ccc3c(c2)CCN3C(=O)Cc2cccc(C(F)(F)F)c2)c2c(N)ncnc21
Procedure, shortened: as §1

[6] = compound: Cn1cc(CNCC2CCN(c3ncc(C(=O)NO)cn3)CC2)c2ccccc21 [quisinostat]
Procedure, shortened: as §1

[7] = compound: Cn1cncc1[C@@](N)(c1ccc(Cl)cc1)c1ccc2c(c1)c(-c1cccc(Cl)c1)cc(=O)n2C [tipifarnib]
Procedure, shortened: as §1

[8] = compound: NC(=O)Nc1cc(-c2cccc(F)c2)sc1C(=O)N[C@H]1CCCNC1
Procedure, shortened: as §1

[9] = compound: NC(=O)c1cnc(N[C@@H]2CCCC[C@@H]2N)nc1Nc1cccc(-n2nccn2)c1
Procedure, shortened: as §1

[10] = compound: NC1(c2ccc(-c3nc4ccn5c(=O)[nH]nc5c4cc3-c3ccccc3)cc2)CCC1
Procedure, shortened: as §1

Measured: log2 fold change

PSPC1 (UniProt Q8WXF1)
inactive: [1] -0.004 | [2] -0.009 | [3] 0.066 | [4] 0.01 | [5] -0.007 | [6] 0.035 | [7] 0.011 | [8] 0.012 | [9] -0.002 | [10] 0.01

PTDSS1 (UniProt P48651)
inactive: [1] -0.038 | [2] 0.012 | [3] -0.078 | [4] 0.049 | [5] -0.051 | [6] -0.09 | [7] 0.096 | [8] 0.12 | [9] 0.047 | [10] -0.092

PTPN18 (UniProt Q99952)
inactive: [1] 0.021 | [2] -0.043 | [3] -0.048 | [4] -0.006 | [5] -0.039 | [6] -0.121 | [7] 0.063 | [8] 0.049 | [9] 0.028 | [10] 0.001

PTGES3 (UniProt Q15185)
inactive: [1] 0.034 | [2] 0.003 | [3] 0.008 | [4] 0.021 | [5] -0.011 | [6] -0.011 | [7] -0.021 | [8] -0.003 | [9] -0.026 | [10] 0.03

PTCD3 (UniProt Q96EY7)
inactive: [1] -0.039 | [2] -0.007 | [3] 0.018 | [4] -0.006 | [5] 0.055 | [6] -0.04 | [7] 0.002 | [8] -0.018 | [9] 0.016 | [10] 0.027

PSMF1 (UniProt Q92530)
inactive: [1] 0.012 | [2] -0.033 | [3] 0.013 | [4] 0 | [5] -0.044 | [6] -0.134 | [7] -0.057 | [8] 0.01 | [9] -0.032 | [10] -0.032

PSMA2 (UniProt P25787)
inactive: [1] 0.028 | [2] -0.039 | [3] 0.008 | [4] -0.026 | [5] -0.029 | [6] -0.022 | [7] 0.015 | [8] 0.002 | [9] -0.011 | [10] 0.018

PTEN isoform 2 (UniProt P60484)
inactive: [1] 0.026 | [2] -0.022 | [3] -0.121 | [4] -0.029 | [5] 0.026 | [6] -0.13 | [7] -0.002 | [8] -0.029 | [9] -0.058 | [10] -0.073

PSMD9 (UniProt O00233)
inactive: [1] -0.018 | [2] -0.048 | [3] 0.022 | [4] -0.023 | [5] -0.025 | [6] -0.091 | [7] -0.006 | [8] -0.01 | [9] -0.005 | [10] -0.045

PTPN1 (UniProt P18031)
inactive: [1] -0.001 | [2] 0.019 | [3] -0.062 | [4] 0.007 | [5] 0.027 | [6] -0.051 | [7] -0.032 | [8] 0.039 | [9] 0.026 | [10] 0.021

PTAR1 (UniProt Q7Z6K3)
inactive: [1] 0.027 | [2] -0.032 | [3] 0.144 | [4] -0.03 | [5] -0.014 | [6] -0.071 | [7] 0.02 | [8] 0.021 | [9] 0.008 | [10] 0.034

PTCD2 (UniProt Q8WV60)
inactive: [1] -0.241 | [2] -0.151 | [3] -0.059 | [4] 0 | [5] 0.115 | [6] -0.009 | [7] 0.103 | [8] 0.126 | [9] -0.112 | [10] -0.029

PRPF8 (UniProt Q6P2Q9)
inactive: [1] -0.007 | [2] -0.009 | [3] -0.002 | [4] -0.021 | [5] 0.012 | [6] -0.004 | [7] 0.003 | [8] 0.026 | [9] -0.006 | [10] -0.002

PTGES2 (UniProt Q9H7Z7)
inactive: [1] 0.446 | [2] -0.044 | [3] 0.01 | [4] -0.019 | [5] 0.015 | [6] -0.046 | [7] -0.057 | [8] -0.012 | [9] -0.056 | [10] -0.078

2 records drawn at random from the list so far:
PTCD2 (UniProt Q8WV60)
inactive: [1] -0.241 | [2] -0.151 | [3] -0.059 | [4] 0 | [5] 0.115 | [6] -0.009 | [7] 0.103 | [8] 0.126 | [9] -0.112 | [10] -0.029

PTAR1 (UniProt Q7Z6K3)
inactive: [1] 0.027 | [2] -0.032 | [3] 0.144 | [4] -0.03 | [5] -0.014 | [6] -0.071 | [7] 0.02 | [8] 0.021 | [9] 0.008 | [10] 0.034

Carrying on.

PSMC6 (UniProt P62333)
inactive: [1] -0.004 | [2] -0.003 | [3] -0.018 | [4] 0.001 | [5] 0.031 | [6] 0.018 | [7] -0.001 | [8] 0.022 | [9] -0.004 | [10] 0.005

PSMD12 (UniProt O00232)
inactive: [1] 0.015 | [2] -0.023 | [3] 0.023 | [4] -0.038 | [5] 0.011 | [6] -0.002 | [7] 0.015 | [8] 0.005 | [9] 0.003 | [10] 0

PSMC3IP (UniProt Q9P2W1)
inactive: [1] 0.019 | [2] 0.038 | [3] -0.008 | [4] 0 | [5] 0.05 | [6] -0.018 | [7] 0.056 | [8] 0.027 | [9] 0.003 | [10] 0.02

PSRC1 (UniProt Q6PGN9)
inactive: [1] -0.103 | [2] -0.127 | [3] -0.003 | [4] -0.079 | [5] 0.051 | [6] -0.083 | [7] -0.086 | [8] 0.027 | [9] -0.081 | [10] 0.011

PUS7 isoform 2 (UniProt Q96PZ0)
inactive: [1] 0 | [2] -0.009 | [3] -0.004 | [4] -0.002 | [5] -0.012 | [6] -0.008 | [7] 0.016 | [8] -0.003 | [9] -0.027 | [10] -0.007

PTBP1 (UniProt P26599)
inactive: [1] 0.08 | [2] -0.026 | [3] -0.053 | [4] 0.032 | [5] -0.04 | [6] -0.025 | [7] 0.03 | [8] 0.001 | [9] -0.044 | [10] 0.026

PSME2 (UniProt Q9UL46)
inactive: [1] -0.021 | [2] -0.008 | [3] -0.016 | [4] -0.035 | [5] -0.05 | [6] -0.001 | [7] -0.021 | [8] -0.009 | [9] 0.017 | [10] 0.009

PRRC2B (UniProt Q5JSZ5)
inactive: [1] -0.054 | [2] -0.036 | [3] -0.071 | [4] 0.006 | [5] -0.027 | [6] 0.044 | [7] 0.045 | [8] 0.055 | [9] -0.002 | [10] 0.041

PUM2 (UniProt Q8TB72)
inactive: [1] -0.109 | [2] -0.021 | [3] -0.146 | [4] -0.052 | [5] 0.1 | [6] 0.108 | [7] -0.05 | [8] 0.014 | [9] 0.071 | [10] -0.05

PRPSAP2 (UniProt O60256)
inactive: [1] 0.045 | [2] 0 | [3] -0.006 | [4] 0.028 | [5] 0.027 | [6] 0.066 | [7] 0.014 | [8] -0.008 | [9] -0.014 | [10] 0.063

PSMB1 (UniProt P20618)
inactive: [1] 0.005 | [2] -0.004 | [3] -0.005 | [4] 0 | [5] -0.017 | [6] -0.005 | [7] -0.002 | [8] 0.005 | [9] -0.02 | [10] -0.025

PUDP isoform 4 (UniProt Q08623)
inactive: [1] 0.017 | [2] -0.01 | [3] 0.009 | [4] 0.036 | [5] -0.007 | [6] -0.014 | [7] -0.005 | [8] -0.012 | [9] 0.02 | [10] -0.006

PUS3 (UniProt Q9BZE2)
inactive: [1] -0.019 | [2] 0.045 | [3] -0.063 | [4] -0.042 | [5] 0.145 | [6] 0.078 | [7] -0.007 | [8] -0.003 | [9] 0.023 | [10] 0.075

PTGFRN (UniProt Q9P2B2)
inactive: [1] 0.012 | [2] -0.005 | [3] 0.016 | [4] 0.001 | [5] -0.036 | [6] -0.033 | [7] 0.014 | [8] -0.001 | [9] -0.01 | [10] 0.001

PSME3 isoform 2 (UniProt P61289)
inactive: [1] -0.021 | [2] 0.017 | [3] 0.017 | [4] -0.018 | [5] 0.004 | [6] 0.034 | [7] 0.024 | [8] 0.005 | [9] 0.008 | [10] 0.033

PWP2 (UniProt Q15269)
inactive: [1] 0.016 | [2] -0.006 | [3] -0.033 | [4] -0.032 | [5] -0.023 | [6] -0.056 | [7] 0.004 | [8] 0.036 | [9] -0.022 | [10] 0.011
